Assay results published in patent publication US6452005B1, “JAK-3 inhibitors for treating allergic disorders” (Parker Hughes Institute, priority 1999, dated 2002).

Key:
human JAK3 [1] = molecular target: T1, human JAK3 (Homo sapiens, UniProt P52333); assay: JAK3 kinase inhibition (Table 1 IC50, immune complex kinase assay); assay type: biochemical; conditions: measured inhibition values for JAK3 kinase
T1 construct: KL-2 EBV-transformed human lymphoblastoid B cells (native JAK3 kinase assays); endogenous in cells; host or cells: KL-2 EBV-transformed human lymphoblastoid B cell line
T1 sequence (P52333 1-1124): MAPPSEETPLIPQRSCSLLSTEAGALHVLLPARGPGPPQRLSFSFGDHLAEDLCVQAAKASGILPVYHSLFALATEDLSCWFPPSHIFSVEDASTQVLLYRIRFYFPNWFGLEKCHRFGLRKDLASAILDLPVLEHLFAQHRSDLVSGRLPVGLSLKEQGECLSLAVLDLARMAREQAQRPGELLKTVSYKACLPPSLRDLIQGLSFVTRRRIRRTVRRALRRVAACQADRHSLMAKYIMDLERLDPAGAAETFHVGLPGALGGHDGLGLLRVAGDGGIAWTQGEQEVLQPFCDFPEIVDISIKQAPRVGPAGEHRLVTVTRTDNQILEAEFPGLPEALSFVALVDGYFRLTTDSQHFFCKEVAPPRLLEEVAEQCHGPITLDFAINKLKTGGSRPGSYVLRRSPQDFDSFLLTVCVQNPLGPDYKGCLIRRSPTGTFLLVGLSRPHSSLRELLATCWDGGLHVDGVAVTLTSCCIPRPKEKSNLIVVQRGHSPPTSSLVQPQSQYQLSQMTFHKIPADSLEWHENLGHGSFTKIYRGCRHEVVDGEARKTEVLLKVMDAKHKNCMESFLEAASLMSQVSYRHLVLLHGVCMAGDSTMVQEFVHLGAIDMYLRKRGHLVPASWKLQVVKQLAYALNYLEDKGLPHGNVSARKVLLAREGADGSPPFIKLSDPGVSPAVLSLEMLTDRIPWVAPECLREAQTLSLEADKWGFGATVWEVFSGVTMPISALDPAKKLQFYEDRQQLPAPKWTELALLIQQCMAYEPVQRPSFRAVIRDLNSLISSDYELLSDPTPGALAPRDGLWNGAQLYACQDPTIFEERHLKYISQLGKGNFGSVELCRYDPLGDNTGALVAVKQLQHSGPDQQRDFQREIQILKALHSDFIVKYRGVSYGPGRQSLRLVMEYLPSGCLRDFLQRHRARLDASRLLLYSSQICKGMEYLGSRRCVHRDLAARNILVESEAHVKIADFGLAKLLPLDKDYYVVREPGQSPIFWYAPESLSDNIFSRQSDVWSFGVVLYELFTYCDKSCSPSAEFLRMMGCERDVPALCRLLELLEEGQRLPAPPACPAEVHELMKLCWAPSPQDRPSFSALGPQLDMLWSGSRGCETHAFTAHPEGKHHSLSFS
Protocol: Immune Complex Kinase Assays.
(§1) KL-2 EBV-transformed human lymphoblastoid B cells (native JAK3 kinase assays) or insect ovary cells (recombinant JAK3 kinase assays) were lysed with NP-40 lysis buffer (50 mM Tris, pH 8, 150 mM NaCl, 5 mM EDTA, 1% NP-40, 100 μM sodium orthovanadate, 100 μM sodium molybdate, 8 μg/ml aprotinin, 5 μg/ml leupeptin, and 500 μM PMSF) and centrifuged 10 minutes at 13000×g to remove insoluble material. Samples were immunoprecipitated with antisera prepared against JAK3. The antisera were diluted and immune complexes collected by incubation with 15 μl protein A Sepharose. After 4 washes with NP-40 lysis buffer, the protein A Sepharose beads were washed once in kinase buffer (20 mM MOPS, pH 7.0, 10 mM MgCl2) and resuspended in the same buffer. Reactions were initiated by the addition of 25 μCi γ[^32P] ATP (5000 Ci/mMole) and unlabeled ATP to a final concentration of 5 μM. Reactions were terminated by boiling for 4 min in SDS sample buffer. Samples were run on 9.5% SDS polyacrylamide gels and labeled proteins will be detected by autoradiography. […] For each drug concentration, a kinase activity index (KA) was determined by comparing the kinase activity in phosphorimager units (PIU) to that of the baseline sample. […]

human JAK3 [2] = molecular target: T1, human JAK3; assay: Immune complex kinase assay, JAK3 immunoprecipitated from KL2 EBV-transformed lymphoblastoid B cell line; assay type: biochemical; conditions: JAK3 immunoprecipitated from KL2 cells
Protocol: as §1

Q: What does the source list for COc1cc2ncnc(Nc3ccc(O)c(Br)c3)c2cc1OC [WHI-P154, 4-(3′-Bromo-4′-hydroxylphenyl)-amino-6,7-dimethoxyquinazoline]?
A: IC50 (human JAK3 [1]): 128 µM; IC50 (human JAK3 [2]): 27.9 µM
